Results are given in words; binding and its absence hold for the method and conditions named. Binding seen in cells or lysates may run through a third protein. Some results given as binding are weak or reduced against the parent protein; the word gives no strength.
Key:
[1] = target: cortactin (endogenous, adherent HEK293 cells) (human (endogenous in HEK293)) (UniProt Q14247); assay: co-IP; cortactin immunoprecipitated from adherent HEK293 cells with anti-cortactin antibody or control IgG; western blot for FAK and its autophosphorylated form
[2] = target: FAK (immunoprecipitation analysis, results not shown) (UniProt Q05397); assay: co-IP; immunoprecipitation analysis, results not shown; cells and antibody not stated

Chains of the proteins cited; added tags and fusions are not shown.
UniProt Q14247: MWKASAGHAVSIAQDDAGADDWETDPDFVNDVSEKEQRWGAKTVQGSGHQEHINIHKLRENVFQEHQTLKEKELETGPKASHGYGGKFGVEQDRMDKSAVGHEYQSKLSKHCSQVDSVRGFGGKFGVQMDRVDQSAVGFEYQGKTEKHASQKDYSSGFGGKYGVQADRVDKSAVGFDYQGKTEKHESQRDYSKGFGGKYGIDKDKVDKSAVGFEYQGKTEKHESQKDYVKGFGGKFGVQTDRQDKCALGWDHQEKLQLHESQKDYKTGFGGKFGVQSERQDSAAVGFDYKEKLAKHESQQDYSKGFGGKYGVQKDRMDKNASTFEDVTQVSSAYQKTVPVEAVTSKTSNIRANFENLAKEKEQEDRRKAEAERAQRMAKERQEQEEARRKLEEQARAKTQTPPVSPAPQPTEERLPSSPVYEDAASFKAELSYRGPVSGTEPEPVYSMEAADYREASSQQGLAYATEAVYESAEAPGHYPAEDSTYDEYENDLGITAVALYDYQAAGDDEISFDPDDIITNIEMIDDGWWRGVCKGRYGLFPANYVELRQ
UniProt Q05397: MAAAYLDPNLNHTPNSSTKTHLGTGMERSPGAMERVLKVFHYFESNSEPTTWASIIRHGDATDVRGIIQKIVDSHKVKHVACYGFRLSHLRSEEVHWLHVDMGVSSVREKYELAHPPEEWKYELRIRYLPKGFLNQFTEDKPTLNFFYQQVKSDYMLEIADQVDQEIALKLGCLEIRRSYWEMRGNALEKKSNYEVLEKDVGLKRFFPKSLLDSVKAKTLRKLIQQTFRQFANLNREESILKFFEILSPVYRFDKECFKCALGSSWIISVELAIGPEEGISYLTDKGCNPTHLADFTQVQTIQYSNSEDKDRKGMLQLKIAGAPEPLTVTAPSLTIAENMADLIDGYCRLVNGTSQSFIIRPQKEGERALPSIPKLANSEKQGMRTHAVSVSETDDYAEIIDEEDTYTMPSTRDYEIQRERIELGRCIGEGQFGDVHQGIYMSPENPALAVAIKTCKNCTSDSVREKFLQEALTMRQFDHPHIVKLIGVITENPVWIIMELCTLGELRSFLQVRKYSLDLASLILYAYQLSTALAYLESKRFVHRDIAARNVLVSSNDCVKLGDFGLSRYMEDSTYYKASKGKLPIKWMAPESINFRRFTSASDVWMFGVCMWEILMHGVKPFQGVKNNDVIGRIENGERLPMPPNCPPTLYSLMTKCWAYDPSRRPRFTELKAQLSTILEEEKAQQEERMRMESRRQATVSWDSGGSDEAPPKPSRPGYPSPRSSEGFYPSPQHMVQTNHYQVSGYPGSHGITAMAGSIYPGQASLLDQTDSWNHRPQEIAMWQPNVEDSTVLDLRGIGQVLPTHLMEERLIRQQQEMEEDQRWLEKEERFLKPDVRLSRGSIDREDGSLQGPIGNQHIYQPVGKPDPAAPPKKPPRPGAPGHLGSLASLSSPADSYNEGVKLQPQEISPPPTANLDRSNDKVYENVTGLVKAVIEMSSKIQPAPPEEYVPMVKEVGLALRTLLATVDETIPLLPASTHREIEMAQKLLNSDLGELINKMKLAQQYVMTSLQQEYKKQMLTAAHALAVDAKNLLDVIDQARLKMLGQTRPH

Substance	binding [1]	binding [2]
FAK (endogenous, adherent HEK293 cells) (from UniProt Q05397 1-1052)	binds	
cortactin (immunoprecipitation analysis, results not shown) (from UniProt Q14247 1-550)		binds
Tyr397-autophosphorylated FAK (endogenous, adherent HEK293 cells) (from UniProt Q05397 1-1052)	binds	

From paper PMC3245448
